Results: patent publication US8119640B2, “Hedgehog pathway antagonists methods of use” (The Board of Trustees of the Leland Stanford Junior …, priority 2008, dated 2012)
At least one compound was matched to its structure with a doubt left.

How the values were obtained:
[1] = test system: PI3K; test: PI3K signaling assay (Akt phosphorylation, PDGF); assay type: cell-based; conditions: NIH-3T3 cells, 50 μM LY294002
[2] = test system: Hh pathway; test: Shh-LIGHT2 assay for Hh pathway activation (Gli-dependent firefly luciferase); assay type: cell-based; conditions: 0.5 μM SAG versus Shh
Experimental: Shh-LIGHT2 assay for Hh pathway activation and library screening conditions. h-N-conditioned medium was prepared as previously described. […] For 96-well plate assays, Shh-LIGHT2 cells were seeded into each plate (10,000 cells/well) and cultured to confluency. The Shh-LIGHT2 cells were then grown in DMEM containing 0.5% CS, 100 U/mL penicillin, 0.1 mg/mL streptomycin, either 5% Shh-N-conditioned medium or 500 nM SAG, and various concentrations of the HPIs. After the cells were cultured for another 30 h, the resulting firefly and Renilla luciferase activities were measured using a Dual Luciferase Reporter kit (Promega) and a Veritas microplate luminometer (Turner Biosystems).
When the cells reached >90% confluency, they were removed by trypsinization and diluted to a final volume of 50 mL medium. This cell suspension was then plated into clear-bottom, white-walled 384-well plates using a Titertek Multidrop dispenser (50 μL/well) and the cells were cultured until they reached confluency (3-4 days). […] Bright-Glo luciferase substrate (Promega) was added by the Multidrop dispenser and the plates were analyzed on an Analyst GT microplate reader (2 min in the dark, 0.2 sec integration/well; Molecular Devices). […] In these experiments, the median inhibitory concentration (IC50) for both firefly and Renilla luciferase were determined using a Dual-Glo kit (Promega).

Row | SMILES | PDGF-induced phosphorylation of Akt [1] | Inhibition of Hh pathway activation induced by 0.5 μM SAG [2]
1 | O=c1cc(N2CCOCC2)oc2c(-c3ccccc3)cccc12 [LY294002] | prevented Akt phosphorylation | –
2 | C=C[C@@]1(C)CC(=O)[C@]2(O)[C@@]3(C)[C@@H](O)CCC(C)(C)[C@@H]3[C@H](O)[C@H](OC(C)=O)[C@@]2(C)O1 [forskolin, reference compound] | – | equipotent against Shh and SAG-dependent Hh pathway activation
